{"source": "patent US20070203144A1", "about": "“Use of Memantine and Brimonidine to Attenuate Vitreoretinal Vascular Endothelial Growth Factor (VEGF) Protein Levels in Animals” (Allergan, Inc., priority 2006, published 2007)", "assay": "Blood glucose of STZ-treated diabetic BN rats", "type": "in vivo, Brown Norway (BN) rats", "conditions": "STZ-treated BN rats (>500 mg/dl), Mem 10 mg/kg/day or Bri 1 mg/kg/day for 4 wks", "data": [{"smiles": "Brc1c(NC2=NCCN2)ccc2nccnc12", "note": "[Brimonidine, brimonidine]", "values": [{"measurement": "effect on blood glucose", "value": "did not affect"}, {"measurement": "effect on blood glucose", "setting": "listed as Bri", "value": "did not have any effect"}]}, {"smiles": "CC12CC3CC(C)(C1)CC(N)(C3)C2", "note": "[Memantine, memantine]", "values": [{"measurement": "effect on blood glucose", "value": "did not affect"}, {"measurement": "effect on blood glucose", "setting": "listed as Mem", "value": "did not have any effect"}]}]}
